No constants are given. Whether binding was seen depends on the method and setting. In cells and extracts the contact can be indirect. Some binding calls cover weakened binding; strength is not graded here.
Molecular target: flag-PHD1^WT (prolyl hydroxylase domain isoform 1) (UniProt Q96KS0)
Test: co-IP; HEK293T co-transfected with Myc-LRS and flag-PHD1 (WT or MUT) for 72 h; 300 µg lysate protein on ANTI-FLAG M2 Affinity Gel at 4 °C overnight; washed 3 times in lysis buffer with 50 mM NaCl added; blot with anti-myc; cells untreated, treated with DMOG or amino acid starved for 4 h

Protein sequences, listed by entry. Tags and fused reporters are not part of them.
UniProt Q96KS0: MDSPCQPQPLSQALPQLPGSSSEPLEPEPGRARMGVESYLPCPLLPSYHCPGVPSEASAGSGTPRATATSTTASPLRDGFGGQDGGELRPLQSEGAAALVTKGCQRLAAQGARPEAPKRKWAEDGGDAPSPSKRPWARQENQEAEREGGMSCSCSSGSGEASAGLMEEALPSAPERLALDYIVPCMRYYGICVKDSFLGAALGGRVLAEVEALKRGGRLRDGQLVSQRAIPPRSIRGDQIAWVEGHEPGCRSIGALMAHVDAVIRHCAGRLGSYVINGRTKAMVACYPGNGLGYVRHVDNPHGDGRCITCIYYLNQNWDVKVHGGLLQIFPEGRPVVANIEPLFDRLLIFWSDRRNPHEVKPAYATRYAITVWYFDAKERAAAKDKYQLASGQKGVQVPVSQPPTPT
UniProt Q9P2J5: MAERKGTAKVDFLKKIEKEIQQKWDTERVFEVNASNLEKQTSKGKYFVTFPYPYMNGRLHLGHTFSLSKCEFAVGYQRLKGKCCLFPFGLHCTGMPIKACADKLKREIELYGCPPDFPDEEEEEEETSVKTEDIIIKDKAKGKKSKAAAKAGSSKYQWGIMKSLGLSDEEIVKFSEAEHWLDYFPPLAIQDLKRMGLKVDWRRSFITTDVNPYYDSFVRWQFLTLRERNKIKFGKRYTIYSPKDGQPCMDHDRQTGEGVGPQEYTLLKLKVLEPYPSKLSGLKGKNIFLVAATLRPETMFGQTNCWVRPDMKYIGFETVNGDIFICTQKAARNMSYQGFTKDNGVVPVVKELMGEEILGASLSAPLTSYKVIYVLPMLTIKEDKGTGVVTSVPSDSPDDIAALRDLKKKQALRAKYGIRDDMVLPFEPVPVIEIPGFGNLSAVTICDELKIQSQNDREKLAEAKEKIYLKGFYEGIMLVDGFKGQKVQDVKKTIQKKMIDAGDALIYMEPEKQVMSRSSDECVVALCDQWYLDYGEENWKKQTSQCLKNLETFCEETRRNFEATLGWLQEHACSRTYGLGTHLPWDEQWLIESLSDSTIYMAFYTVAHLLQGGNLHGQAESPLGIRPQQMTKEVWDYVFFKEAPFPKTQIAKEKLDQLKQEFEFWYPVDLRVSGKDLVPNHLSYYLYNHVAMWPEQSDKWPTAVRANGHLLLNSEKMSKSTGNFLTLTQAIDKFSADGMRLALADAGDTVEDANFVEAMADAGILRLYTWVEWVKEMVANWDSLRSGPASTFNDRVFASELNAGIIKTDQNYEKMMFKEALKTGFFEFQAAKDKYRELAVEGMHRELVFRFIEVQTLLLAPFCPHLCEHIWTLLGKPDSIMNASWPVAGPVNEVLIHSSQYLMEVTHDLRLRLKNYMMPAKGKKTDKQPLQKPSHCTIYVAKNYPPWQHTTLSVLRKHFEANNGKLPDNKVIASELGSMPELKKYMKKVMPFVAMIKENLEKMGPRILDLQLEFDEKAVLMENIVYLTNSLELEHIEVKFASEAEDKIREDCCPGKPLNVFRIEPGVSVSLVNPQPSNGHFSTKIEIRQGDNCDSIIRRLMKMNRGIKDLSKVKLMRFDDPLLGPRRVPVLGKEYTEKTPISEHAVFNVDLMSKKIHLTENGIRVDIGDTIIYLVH

## myc-LRS (leucyl tRNA synthetase) (from UniProt Q9P2J5 1-1176) (enzyme)
  binding: binds weakly
